Publication doi:10.1101/245597
Like-named read-outs stand apart in the source and are kept apart here. No constants are given. Whether binding was seen depends on the method and setting. Binding seen in cells or lysates may run through a third protein. Some entries that bind do so weakly or less than the wild type. Tags and fused reporters may be left off the sequences shown.

T1: Centromeric protein B (CENP-B), FLAG-tagged, wild type (human) (UniProt P07199)
T1 sequence: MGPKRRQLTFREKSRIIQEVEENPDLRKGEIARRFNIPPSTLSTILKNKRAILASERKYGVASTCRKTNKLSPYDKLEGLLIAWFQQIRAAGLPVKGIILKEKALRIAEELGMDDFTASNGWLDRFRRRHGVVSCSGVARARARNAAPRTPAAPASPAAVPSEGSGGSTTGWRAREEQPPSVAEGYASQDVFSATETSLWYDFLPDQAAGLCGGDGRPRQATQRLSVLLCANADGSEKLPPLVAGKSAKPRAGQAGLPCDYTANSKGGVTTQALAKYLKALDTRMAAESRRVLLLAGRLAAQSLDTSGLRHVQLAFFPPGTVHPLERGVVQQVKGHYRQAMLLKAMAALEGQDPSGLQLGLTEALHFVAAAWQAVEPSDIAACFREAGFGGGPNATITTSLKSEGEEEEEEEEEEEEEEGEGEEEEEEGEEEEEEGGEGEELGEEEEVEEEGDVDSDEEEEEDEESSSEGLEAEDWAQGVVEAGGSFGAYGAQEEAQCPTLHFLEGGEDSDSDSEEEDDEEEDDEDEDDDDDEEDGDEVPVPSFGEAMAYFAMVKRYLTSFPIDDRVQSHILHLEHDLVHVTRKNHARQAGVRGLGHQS

T2: RNF4DN (C132/135S), dominant-negative RING-finger mutant of RNF4 (human (cDNA from a HeLa cDNA library)) (UniProt P78317)
T2 sequence: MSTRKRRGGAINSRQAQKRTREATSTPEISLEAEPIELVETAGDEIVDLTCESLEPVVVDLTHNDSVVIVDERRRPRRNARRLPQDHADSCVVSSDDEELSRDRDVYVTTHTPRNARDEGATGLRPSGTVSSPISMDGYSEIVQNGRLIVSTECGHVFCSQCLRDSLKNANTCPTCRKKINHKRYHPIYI


Legend:
Experiment in all cases: co-IP
[1] = target: T1, Centromeric protein B (CENP-B), FLAG-tagged, wild type (human)
[2] = target: T1, Centromeric protein B (CENP-B), FLAG-tagged, wild type (human); remark: listed apart in the source
[3] = target: T2, RNF4DN (C132/135S), dominant-negative RING-finger mutant of RNF4 (human (cDNA from a HeLa cDNA library))
[4] = target: T2, RNF4DN (C132/135S), dominant-negative RING-finger mutant of RNF4 (human (cDNA from a HeLa cDNA library)); remark: listed apart in the source

binding [1] | binding [2] | binding [3] | binding [4] | Binder
no binding (condition: without NEM) | binds | – | – | RNF4DN (C132/135S), dominant-negative RING-finger mutant of RNF4 (enzyme, UniProt P78317 1-190) MSTRKRRGGAINSRQAQKRTREATSTPEISLEAEPIELVETAGDEIVDLTCESLEPVVVDLTHNDSVVIVDERRRPRRNARRLPQDHADSCVVSSDDEELSRDRDVYVTTHTPRNARDEGATGLRPSGTVSSPISMDGYSEIVQNGRLIVSTECGHVFCSQCLRDSLKNANTCPTCRKKINHKRYHPIYI
– | – | no binding (condition: without NEM) | binds | Centromeric protein B (CENP-B), FLAG-tagged, wild type (protein, UniProt P07199 1-599) MGPKRRQLTFREKSRIIQEVEENPDLRKGEIARRFNIPPSTLSTILKNKRAILASERKYGVASTCRKTNKLSPYDKLEGLLIAWFQQIRAAGLPVKGIILKEKALRIAEELGMDDFTASNGWLDRFRRRHGVVSCSGVARARARNAAPRTPAAPASPAAVPSEGSGGSTTGWRAREEQPPSVAEGYASQDVFSATETSLWYDFLPDQAAGLCGGDGRPRQATQRLSVLLCANADGSEKLPPLVAGKSAKPRAGQAGLPCDYTANSKGGVTTQALAKYLKALDTRMAAESRRVLLLAGRLAAQSLDTSGLRHVQLAFFPPGTVHPLERGVVQQVKGHYRQAMLLKAMAALEGQDPSGLQLGLTEALHFVAAAWQAVEPSDIAACFREAGFGGGPNATITTSLKSEGEEEEEEEEEEEEEEGEGEEEEEEGEEEEEEGGEGEELGEEEEVEEEGDVDSDEEEEEDEESSSEGLEAEDWAQGVVEAGGSFGAYGAQEEAQCPTLHFLEGGEDSDSDSEEEDDEEEDDEDEDDDDDEEDGDEVPVPSFGEAMAYFAMVKRYLTSFPIDDRVQSHILHLEHDLVHVTRKNHARQAGVRGLGHQS
